Data as given in patent US10100097B2 (Zealand Pharma A/S, priority 2012, dated 2018).

Test: general procedure: Fmoc solid-phase peptide synthesis; TentaGel S Ram S resin
Conditions: whole synthesis, analytical HPLC and MS, scale of the general procedure 1 g resin, 0.25 mmol/g

Substance: H-Y[Aib]EGTFISDYSIYLEKKAAKEFVNWLLAQK-NH2
- final HPLC purity: 96%

Square brackets hold non-standard residues; d marks the D form. Aib = CC(C)(N)C(=O)O
